Experimental data from article PMC7819943, “Rice protein-binding microarrays: a tool to detect cis-acting elements near promoter regions in rice”.
The list shows a part of the results.

Amino acid sequences for entries named in this document (tags omitted).
UniProt Q0JBA9, entry or part of it: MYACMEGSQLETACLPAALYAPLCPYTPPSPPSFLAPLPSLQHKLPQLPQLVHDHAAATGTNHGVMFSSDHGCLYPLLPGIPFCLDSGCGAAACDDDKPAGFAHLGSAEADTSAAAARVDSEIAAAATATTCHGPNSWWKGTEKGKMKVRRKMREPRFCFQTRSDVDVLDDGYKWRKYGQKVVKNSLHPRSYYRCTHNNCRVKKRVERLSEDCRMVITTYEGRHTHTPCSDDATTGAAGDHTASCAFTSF

Target: OsWRKY34 (Oryza sativa, UniProt Q0JBA9 1-250)
Test: protein-binding microarray (RPBM); PBS, 2% BSA, 51.3 ng/ul salmon testes DNA, 50 uM zinc acetate, 200 nM TF, 25 C, 1 h; high values mean tight binding
Settings: protein: recombinant; tags: N-terminal polyhistidine and DsRed monomer fusion (pET32a); label: CyDye5-dUTP incorporated in the synthesized complementary strand; 3' TTTTT single-stranded linker to array surface; dsDNA, one strand shown
Method in brief: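 Transcription factors were made in E. coli BL21-CodonPlus as N-terminal fusions to a polyhistidine tag and DsRed, then purified on Ni–NTA. After primer extension with Cy5-dUTP and blocking with 2% BSA, a custom Agilent array was exposed for 1 h at 25 °C to 200 nM protein in PBS, 2% BSA, salmon testes DNA and 50 µM zinc acetate. Washed arrays were scanned on an Axon 4000B, and the binding signal is per-feature fluorescence intensity in arbitrary units.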

| Sequence | binding signal |
| --- | --- |
| ATACTTAAACATTCTTCATTCTTTGTACAATTCTGAAATTCGGAGTCACCTAGTGCAG | 8450 fluorescence intensity (a.u.) |
| GCAAACCACGCTACTACAAAACCATTATTGTAAACACATCCGGAGTCACCTAGTGCAG | 8570 fluorescence intensity (a.u.) |
| CAGATCCACTGAAGGTCCGAATGCATTATGGCCATCCAGACGGAGTCACCTAGTGCAG | 8130 fluorescence intensity (a.u.) |
| TTTTTTTACCTTTGCTGCAAAACAAGTTGTTCGTGTGTCGCGGAGTCACCTAGTGCAG | 8750 fluorescence intensity (a.u.) |
| ACACACACTCCCTCTCTCTTTCTGTACAGTGTCATTCCTTCGGAGTCACCTAGTGCAG | 9330 fluorescence intensity (a.u.) |
| CTTCACTCTGGTCGTGTTTCCGTTTGTTTTCCATCCCATTCGGAGTCACCTAGTGCAG | 8920 fluorescence intensity (a.u.) |
| TTTTGCTTCCGGTGATGTGGTGGTGCTCGGGCCTGTTATTCGGAGTCACCTAGTGCAG | 13600 fluorescence intensity (a.u.) |
| ACCACCACCACCCGCCGCCGCCTCCCTCTCTTTTATGCGTCGGAGTCACCTAGTGCAG | 10900 fluorescence intensity (a.u.) |
| GCCGCATCTTCCGCCGCCTCTGCTTCCGCCTCTGCCCTGGCGGAGTCACCTAGTGCAG | 10500 fluorescence intensity (a.u.) |
| CTTCTTCGTGATGCACCTTTTGCTTTACAGCGCTAGCAATCGGAGTCACCTAGTGCAG | 8310 fluorescence intensity (a.u.) |
| TGTTCAGTTCTACATCGCTTCTGACTCGCAATTTGGTTTCCGGAGTCACCTAGTGCAG | 12400 fluorescence intensity (a.u.) |
| ACACCATGTCACATCCAACTAGGCCCTCCTCCTCTTTGATCGGAGTCACCTAGTGCAG | 8460 fluorescence intensity (a.u.) |
| ACTAGCATCTATAGTTGCTGCCATGTTCAAGGCCGTCCATCGGAGTCACCTAGTGCAG | 8400 fluorescence intensity (a.u.) |
| AAGGCAAACCCTGAGTTTCTGTGTCCAACTTTAACTGTCCCGGAGTCACCTAGTGCAG | 8090 fluorescence intensity (a.u.) |
| CCCGCTGCCACCTCCGAGTCCACTTCTCGCCACCCTCTGCCGGAGTCACCTAGTGCAG | 12700 fluorescence intensity (a.u.) |
| TATCTCTTTTTGGTATGGTCTGCAATTTATATGGTTTCTACGGAGTCACCTAGTGCAG | 9500 fluorescence intensity (a.u.) |
| TACTTTACCGTTCGCTTTACCCTCTCCATAGATGCAAACTCGGAGTCACCTAGTGCAG | 9120 fluorescence intensity (a.u.) |
| TTATGCCAGCCATTTCACTTTTTCCCACGTTTTGTCATTTCGGAGTCACCTAGTGCAG | 18900 fluorescence intensity (a.u.) |
| GAGTTGTTACTGATGTGGGTTTACTGAATTCTGTCAATACCGGAGTCACCTAGTGCAG | 11100 fluorescence intensity (a.u.) |
| CATTACCCTTTACTTGCAAATCAAGTCCAATTCATGTTTCCGGAGTCACCTAGTGCAG | 9660 fluorescence intensity (a.u.) |
| ACTCCATCAATTTTTCATTATGTCTGTGTTTGTCCTGACTCGGAGTCACCTAGTGCAG | 14900 fluorescence intensity (a.u.) |

| Sequence | binding signal |
| --- | --- |
| GCGTCAATTAGTGCCTCTCTCTGTATGCATTCTTCCTATTCGGAGTCACCTAGTGCAG | 10300 fluorescence intensity (a.u.) |
| TATACCCTCACCATCCAATCAACTACTATTATTGTTTTCTCGGAGTCACCTAGTGCAG | 8200 fluorescence intensity (a.u.) |
| CCCATATAGGAGATATTTGTGTTTTGTTGATCGAGCCACCCGGAGTCACCTAGTGCAG | 9370 fluorescence intensity (a.u.) |
| TTTTGGTTGTTGTGATCCCTGTGGGGCTCGGGTTCCGGCCCGGAGTCACCTAGTGCAG | 8150 fluorescence intensity (a.u.) |
| ACCTTTTCTTAAATTTCTCATGTTTTTCCCGTTGCAATGCCGGAGTCACCTAGTGCAG | 9070 fluorescence intensity (a.u.) |
| AGCATGCTCTAGGAGTTGGCTTTGCGTTGGTTCTGAGGGTCGGAGTCACCTAGTGCAG | 8200 fluorescence intensity (a.u.) |
| TACATTAAGTACCACACTCCAGGCCTCATCTTCTACTCCCCGGAGTCACCTAGTGCAG | 8240 fluorescence intensity (a.u.) |
| ACGCGCTCAGACAAGCATCCTACCACTACTAGTCGCTATACGGAGTCACCTAGTGCAG | 8080 fluorescence intensity (a.u.) |
| GCATCTGCGCTACATTCTCCATGGTGGGTCTTTTGCTTCTCGGAGTCACCTAGTGCAG | 8070 fluorescence intensity (a.u.) |
| AGTACATTTATTTTGGGCTATTTATTTGTACACGTCAAGACGGAGTCACCTAGTGCAG | 9940 fluorescence intensity (a.u.) |
| CAATTGGCTCCTACCCGTTATCTTTGTGTTTCCATCCAGTCGGAGTCACCTAGTGCAG | 9290 fluorescence intensity (a.u.) |
| TTCTTTCCGTTGTGCTTGCTGCTTTTCTCTACTACCTTTTCGGAGTCACCTAGTGCAG | 9900 fluorescence intensity (a.u.) |
| CACCGGCTTCCCTCAATTTACCACTGGTCTCAGTGCTAGCCGGAGTCACCTAGTGCAG | 9320 fluorescence intensity (a.u.) |
| AAATTCCCGGGCTTTTTTTCTTTTGCTTGCTTCCTTTGCTCGGAGTCACCTAGTGCAG | 10800 fluorescence intensity (a.u.) |
| CATAAACAGGAACACCATTGTCTGTATGTTACTTGTTTACCGGAGTCACCTAGTGCAG | 8850 fluorescence intensity (a.u.) |
| GCTTCGTTGTACTAGGTCCTTTTAGATTATTTTTTTTATGCGGAGTCACCTAGTGCAG | 10500 fluorescence intensity (a.u.) |
| TTGTGGGTCTCCTATTTTTGGGGTTGATCTTCCTCCTTCCCGGAGTCACCTAGTGCAG | 9420 fluorescence intensity (a.u.) |
| GTTTCTCTTTTATCCTACTAACTACTCCACTAATTGATTTCGGAGTCACCTAGTGCAG | 8490 fluorescence intensity (a.u.) |
| CACCCTTATTTATTGGTTTTTTTGCTTTTGGTCGGTGTTTCGGAGTCACCTAGTGCAG | 10100 fluorescence intensity (a.u.) |
| ACTACCACACCGACCCGAGCCAGCTCCCTTCATTCATCTCCGGAGTCACCTAGTGCAG | 11500 fluorescence intensity (a.u.) |
| ATCATATCCACACACACACATCTTCCTAAACTACATTTTACGGAGTCACCTAGTGCAG | 8110 fluorescence intensity (a.u.) |

Copied from the results shown (2 entries):

| Sequence | binding signal |
| --- | --- |
| AAATTCCCGGGCTTTTTTTCTTTTGCTTGCTTCCTTTGCTCGGAGTCACCTAGTGCAG | 10800 fluorescence intensity (a.u.) |
| CATAAACAGGAACACCATTGTCTGTATGTTACTTGTTTACCGGAGTCACCTAGTGCAG | 8850 fluorescence intensity (a.u.) |
